Source: the supplement of paper PMC9454738
Counter-ions that a name gives are not always drawn. ± gives the standard deviation of the averaged measurements. The list shows a part of the results. This data set is noisy: repeats of one test often differ as much as different tests do.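 Triple-negative MDA-MB-231 breast cancer cells and their brain-metastatic MDA-MB-231BRM derivative each stably expressed empty vector, full-length GLI1 or truncated tGLI1. CellTiter-Blue measured viability at 48 h relative to 1% DMSO vehicle. Compounds reducing viability 20% more in tGLI1 cells than in vector and GLI1 cells counted as tGLI1-selective.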

Legend:
Experiment in all cases: cell viability relative to vehicle (DMSO) control (fraction); higher = more viable cells (less growth inhibition)
Settings in all cases: treatment time 48 h
[1] = system: MDA-MB-231 GLI1
[2] = system: MDA-MB-231 Vector
[3] = system: MDA-MB-231 tGLI1
[4] = system: MDA-MB-231BRM GLI1
[5] = system: MDA-MB-231BRM Vector
[6] = system: MDA-MB-231BRM tGLI1

| Compound | cell viability ([1]; 0.05 µM) | cell viability ([1]; 0.5 µM) | cell viability ([1]; 5 µM) | cell viability ([2]; 0.05 µM) | cell viability ([2]; 0.5 µM) | cell viability ([2]; 5 µM) | cell viability ([3]; 0.05 µM) | cell viability ([3]; 0.5 µM) | cell viability ([3]; 5 µM) | cell viability ([4]; 0.05 µM) | cell viability ([4]; 0.5 µM) | cell viability ([4]; 5 µM) | cell viability ([5]; 0.05 µM) | cell viability ([5]; 0.5 µM) | cell viability ([5]; 5 µM) | cell viability ([6]; 0.05 µM) | cell viability ([6]; 0.5 µM) | cell viability ([6]; 5 µM) |
| --- | --- | --- | --- | --- | --- | --- | --- | --- | --- | --- | --- | --- | --- | --- | --- | --- | --- | --- |
| CCCCOc1c(C(=O)c2c(F)cc(C)cc2F)c[nH]c2nncc1-2 | 1.24 | 0.998 | 0.326 | 1.74 | 1.3 | 0.277 | 0.849 | 0.87 | 0.221 | 0.817 | 1.24 | 0.973 | 1.16 | 1.21 | 1.17 | 1.18 | 1.27 | 0.545 |
| Oc1ccc(Nc2nc(-c3ccc(Cl)cc3)cs2)cc1 | 1.47 | 1.67 | 0.494 | 1.37 | 1.53 | 0.842 | 1.43 | 1.43 | 0.835 | 1.03 | 0.988 | 0.677 | 1.19 | 1.05 | 0.704 | 1.01 | 1.01 | 0.621 |
| O=c1cc(-c2cccc3c2Sc2ccccc2S3)oc(N2CCOCC2)c1 | 1.44 | 1.74 | 1.04 | 1.39 | 1.27 | 0.849 | 1.2 | 1.39 | 0.987 | 0.953 | 1.01 | 0.908 | 0.7 | 0.905 | 0.888 | 0.949 | 0.936 | 0.957 |
| COc1cccc2c1C(=O)c1c(O)c3c(c(O)c1C2=O)C[C@@](O)(C(=O)CO)C[C@@H]3O[C@H]1C[C@H](N)[C@H](O)[C@H](C)O1 [Doxorubicin (Adriamycin)] | 0.443 | 0.0783 | -0.113 | 0.542 | -0.128 | -0.381 | 0.579 | 0.00167 | -0.226 | 0.35 | 0.218 | -0.0621 | 0.432 | 0.257 | -0.0451 | 0.498 | 0.237 | -0.0437 |
| O=c1c(-c2ccc(O)cc2)coc2cc(O)cc(O)c12 [Genistein] | 1.03 ± 0.07 | 0.972 ± 0.081 | 1.08 ± 0.24 | 1.14 ± 0.46 | 0.986 ± 0.015 | 0.977 ± 0.052 | 1.03 ± 0.089 | 1.12 ± 0.052 | 1.02 ± 0.048 | 1.06 ± 0.083 | 1.02 ± 0.075 | 0.909 ± 0.14 | 0.882 ± 0.21 | 0.978 ± 0.017 | 0.77 ± 0.4 | 1.04 ± 0.038 | 1.02 ± 0.16 | 0.893 ± 0.15 |
| CCc1cncnc1N1CCN(Cc2nc3ccc(C(F)(F)F)cc3[nH]2)CC1 | 1.39 | 1.44 | 1.79 | 0.891 | 1.38 | 1.42 | 1.14 | 1.42 | 1.41 | 1.08 | 1.15 | 0.928 | 1.1 | 1.05 | 0.972 | 0.925 | 1.09 | 0.858 |
| CN1CCN(Cc2ccc(-c3cnc4[nH]cc(-c5ccc6[nH]ccc6c5)c4c3)cc2)CC1 | 1.11 | 1.58 | 1.07 | 0.914 | 1.06 | 1.32 | 1.13 | 1.11 | 1.24 | 1.11 | 0.972 | 0.916 | 1.07 | 1.07 | 0.891 | 1.14 | 0.967 | 0.876 |
| Cc1cc(O)c2c(c1)C(=O)c1cccc(O)c1C2=O [Chrysophanic Acid] | 1.15 | 1.31 | 1.11 | 1.31 | 1.56 | 1.39 | 1.36 | 1.35 | 1.21 | 1 | 0.995 | 1.07 | 1.07 | 1.03 | 0.988 | 1.08 | 1.08 | 0.986 |
| COc1ccc(-c2ccc3cc(C(=O)O)ccc3c2)cc1C12CC3CC(CC(C3)C1)C2 [Adapalene] | 1.29 | 1.08 | 0.976 | 0.917 | 1.83 | 0.576 | 1.19 | 1.2 | 0.758 | 1.01 | 0.93 | 0.843 | 1.01 | 0.884 | 0.964 | 0.973 | 0.998 | 0.996 |
| O=C1NC(=O)/C(=C/c2ccc3c(c2)OC(F)(F)O3)S1 | 1.23 | 1.32 | 1.13 | 1.23 | 1.37 | 1.45 | 1.43 | 1.28 | 1.1 | 0.998 | 1.07 | 0.915 | 1.14 | 1.15 | 0.981 | 1.08 | 1.07 | 0.799 |
| NCC(=O)Nc1ccc(-n2nc(C(F)(F)F)cc2-c2ccc3c(ccc4ccccc43)c2)cc1 | 0.839 | 0.765 | -0.0771 | 0.933 | 0.643 | 0.023 | 0.93 | 0.683 | -0.0266 | 0.968 | 1 | 0.936 | 0.967 | 1.06 | 0.888 | 0.964 | 1.1 | 0.784 |
| Cc1ccc(NC(=O)c2ccc(CN3CCN(C)CC3)cc2)cc1Nc1nccc(-c2cccnc2)n1 [Imatinib Mesylate (STI571)] | 1.45 | 1.8 | 1.01 | 1.43 | 1.19 | 0.995 | 1.11 | 1.39 | 1.21 | 0.901 | 0.923 | 0.875 | 0.898 | 0.91 | 0.869 | 0.926 | 0.881 | 0.868 |
| Cc1[nH]c(/C=C2\C(=O)Nc3ccc(S(=O)(=O)N(C)c4cccc(Cl)c4)cc32)c(C)c1C(=O)N1CCN(C)CC1 | 1.45 | 1.91 | 1.08 | 1.59 | 1.34 | 0.688 | 1.29 | 1.55 | 0.873 | 0.889 | 0.944 | 0.577 | 0.994 | 0.832 | 0.609 | 0.961 | 0.879 | 0.553 |

Retrieved by compound from above (2):

| Compound | cell viability ([1]; 0.05 µM) | cell viability ([1]; 0.5 µM) | cell viability ([1]; 5 µM) | cell viability ([2]; 0.05 µM) | cell viability ([2]; 0.5 µM) | cell viability ([2]; 5 µM) | cell viability ([3]; 0.05 µM) | cell viability ([3]; 0.5 µM) | cell viability ([3]; 5 µM) | cell viability ([4]; 0.05 µM) | cell viability ([4]; 0.5 µM) | cell viability ([4]; 5 µM) | cell viability ([5]; 0.05 µM) | cell viability ([5]; 0.5 µM) | cell viability ([5]; 5 µM) | cell viability ([6]; 0.05 µM) | cell viability ([6]; 0.5 µM) | cell viability ([6]; 5 µM) |
| --- | --- | --- | --- | --- | --- | --- | --- | --- | --- | --- | --- | --- | --- | --- | --- | --- | --- | --- |
| Cc1cc(O)c2c(c1)C(=O)c1cccc(O)c1C2=O [Chrysophanic Acid] | 1.15 | 1.31 | 1.11 | 1.31 | 1.56 | 1.39 | 1.36 | 1.35 | 1.21 | 1 | 0.995 | 1.07 | 1.07 | 1.03 | 0.988 | 1.08 | 1.08 | 0.986 |
| CCCCOc1c(C(=O)c2c(F)cc(C)cc2F)c[nH]c2nncc1-2 | 1.24 | 0.998 | 0.326 | 1.74 | 1.3 | 0.277 | 0.849 | 0.87 | 0.221 | 0.817 | 1.24 | 0.973 | 1.16 | 1.21 | 1.17 | 1.18 | 1.27 | 0.545 |
